From PubChem BioAssay AID504465 (National Center for Advancing Translational Sciences (NCATS), 2011)
The campaign covered roughly 2,100 compounds. About 210 (10%) were called active. The inconclusive results got no clear call from the source; some entries with a clear call stand among them for comparison. Calls come from the whole dose curve; as a rule, active = well fitted inhibition curve with a large enough effect; inconclusive = small, poorly fitted or top-dose-only effect, or effect the other way; inactive = no such curve, though single readings can be large or run the other way. Potencies beside an inconclusive call are fits to weak or partial responses and may not hold up.
Potency is the fitted concentration of half-maximal effect.

Assay: IN Cell qHTS Assay for Inhibitors of the mTORC1 Signaling Pathway in MEF (Tsc2-/-, p53-/-) Cells: Sytravon; note: nearly all actives have a fitted effect of over 60% in size
Conditions: phospho-rpS6 immunofluorescence, 24 h; activity, negative = inhibition: at 38.3 µM (top of the series)
Text: NIH Molecular Libraries Probe Production Centers Network [MLPCN] NIH Chemical Genomics Center [NCGC] MLPCN Grant: NS059428-01 Assay Submitter (PI): Blenis, John; Hoffman, Greg; Harvard University NCGC Assay Overview: Thee mammalian target of rapamycin (mTOR) is an intracellular serine/threonine kinase Aberrant regulation of mTOR signaling plays a causative role in a number of human diseases, including cancer, benign tumors such as lymphangioleiomyomatosis (LAM) and Tuberous Sclerosis Complex (TSC), and metabolic diseases such as diabetes and obesity. This project aims to identify inhibitors of ribosomal protein S6 (rpS6) phosphorylation. The phosphorylation of rpS6 is a key event downstream of mTOR activation. The assay uses a phospho-specific antibody of phospho-rpS6 to detect inhibitors of mTOR activation. Mutations in the Tsc1 and Tsc2 genes are the underlying genetic lesions responsible for TSC, causing constitutive activation of the mTORC1 pathway and leading to profound effects on cell metabolism. Aberrant metabolism in cancer has recently received significant attention as a target to develop therapeutic agents in the treatment of cancer1. As Tsc2-/- cells have lost the ability to respond to energy and growth factor deprivation, these cells are unable to properly down regulate cellular biosynthetic processes in response to metabolic stress, and are thus extremely sensitive to glucose deprivation-induced death.2 A central goal of this project is to explore the unique cell survival and metabolic properties of cells with Tsc1 or Tsc2 by screening for compounds that selectively target the Tsc2-/- MEFs by screening both Tsc2-/- and WT MEF cell lines. We hope to better understand these aspects of TSC physiology in order to exploit them for therapeutic benefit.
NCGC IN Cell Assay Protocol: For quantitative high throughput analysis of mTORC1 signaling, we developed a cell-based assay for immuno-fluorescence based detection of rpS6 phosphorylation on the Acumen Explorer that will be used a platform for the primary small molecule screen. Mouse embryonic fibroblasts (MEFs) are cultured in 1536-well plates using DMEM + 10% FBS. Twenty-four hrs after plating, test compounds (solubilized in DMSO) are delivered and incubated with the cells for 24 hrs at 37 degree Celsius. Following the incubation, media with compound is aspirated and the cells are fixed in 4% paraformaldehyde (PFA) containing PBS + 0.2% TX-100. Next, PFA is aspirated, cells are washed two times with PBS plus 0.2% TX-100 and the cells are blocked for 1 hr at room temperature (blocking buffer: LiCOR Blocking Buffer plus 0.2% TX-100). This is followed by aspiration and staining with Alexa-488 conjugated-phospho-rpS6 Ser235/236 antibody for 2 hours at room temperature (Cell Signaling Technology # 4803, 1:50 dilution in blocking buffer). Cells are washed two times with PBS plus 0.2% TX-100, and stained with 10 uM propidium iodide (PI) for 20-25 minutes for cell number measurement (1:500 dilution of Hoescht staining is also added for IN Cell imaging). Active wells which are selected (based on Acumen results) are imaged on the IN Cell 1000 (GE Healthcare) using the D360/40X and HQ480/40X excitation filters for the Hoechst and Alexa-488 cytoplasmic stains, respectively. The fluorescence emission filters used were HQ460/40M and HQ535/50M for the Hoechst and Alexa-488 cytoplasmic stains, respectively. The normalized phospho-S6 staining is calculated as the ratio of […] for the single concentration rapamycin control (7.5 nM) and DMSO columns. […] Inhibition of the pathway is defined based on the normalized phospho-S6 intensity in rapamycin treated cells. Each treatment is reported as the % positive cells in the well, where thresholds are defined by selecting wells with the highest and lowest signal and differentiating between the % non-active and % active populations. […]
With `CCOC(=O)c1c(C)c(-c2ccccc2)n(CC(=O)Nc2cc(C)cc(C)c2)c1C` the Potency was inconclusive: 23.3 µM [falling, single point]. With `Clc1cccc(CSc2nnc(C3CCNCC3)o2)c1` the Potency was inconclusive: 26.1 µM [falling, single point]. With `Cc1ccccc1-c1nc(SCC(=O)N(C)c2ccccc2)c2c(=O)n(C)c(=O)n(C)c2n1` the “activity, negative = inhibition” value was inactive: 9.38%. In the case of `Cc1ccccc1Cn1c(CN2CCC(C(=O)NCCN(C)C)CC2)cc2ccccc21`, the Potency was active: 11.7 µM. In the case of `Cc1cccc(C)c1NC(=O)Cn1c(=O)n(CCC(=O)NCc2ccccc2Cl)c(=O)c2sccc21`, the “activity, negative = inhibition” value was inactive: -89.9%. For `CCN1CCN(c2cc(C)c3cc(NC(=O)c4cc(Cl)ccc4OC)ccc3n2)CC1`, the Potency was active: 2.93 µM. In the case of `CCN1C(=O)C2(c3ccccc31)c1c(oc3ccc(F)cc3c1=O)C(=O)N2CCCOC` (stereo unspecified), the Potency was inconclusive: 5.21 µM [falling, single point]. In the case of `CN(C)S(=O)(=O)c1ccc(C(=O)Nc2ccc(-n3nncc3-c3ccccc3)cc2)cc1`, the “activity, negative = inhibition” value was inactive: 6.25%. In the case of `COc1ccc(OCC(=O)NCc2ccc3c(c2)CCN3C(=O)c2cccc(C)c2)cc1`, the Potency was inconclusive: 18.5 µM [falling, partial curve, poor fit]. For `CCCCC(=O)OC1=CN(Cc2ccccc2)S(=O)(=O)c2ccccc21`, the Potency was inconclusive: 1.17 µM [falling, partial curve, poor fit]. In the case of `CCOc1ccc(NC(=O)c2nc(S(=O)(=O)Cc3ccccc3F)ncc2Cl)cc1`, the Potency was active: 3.69 µM. With `Cc1ccc(C)c(NC(=O)c2nc(S(=O)(=O)Cc3ccc(F)cc3)ncc2Cl)c1` the Potency was active: 3.29 µM. In the case of `CC(C)CCNc1nc(Nc2ccccc2)c2cnn(C)c2n1`, the Potency was inconclusive: 16.5 µM [falling, single point]. For `COc1ccccc1NC(=O)C1=C(C)Nc2nc(-c3ccco3)nn2C1c1cccc(C)c1` (stereo unspecified), the “activity, negative = inhibition” value was inactive: -49.1%. In the case of `Cc1nc2c(-c3ccccc3)c(C)[nH]n2c(=O)c1Cc1ccc(Br)cc1`, the Potency was inconclusive: 26.1 µM [falling, single point]. In the case of `COc1ccc(C)cc1Nc1c2c(nc3ccccc13)CCC2`, the Potency was active: 7.36 µM. In the case of `CS(=O)(=O)c1ncc(Cl)c(C(=O)N(Cc2ccc(Cl)cc2)Cc2ccco2)n1`, the Potency was active: 2.33 µM. For `COc1ccc(C)cc1NC(=O)C(NS(=O)(=O)c1cccs1)c1ccccc1` (stereo unspecified), the “activity, negative = inhibition” value was inactive: -19.2%. In the case of `Cc1cc(-c2ccc(S(=O)(=O)Nc3cccc(C)c3C)s2)on1`, the Potency was inconclusive: 3.69 µM [falling, single point]. With `CCC(Sc1nnc(C)n2c1cc1occc12)C(=O)Nc1ccccc1F` (stereo unspecified) the Potency was inconclusive: 14.7 µM [falling, single point]. In the case of `CCOC(=O)c1ccc(N2C(=O)c3n[nH]c(-c4cccs4)c3C2c2cccc(F)c2)cc1` (stereo unspecified), the Potency was active: 13.1 µM. With `CCc1ccc(NC(=O)CC2C(=O)OCCN2CC)cc1` (stereo unspecified) the Potency was inconclusive: 2.33 µM [activator, partial curve, poor fit]. For `CCCC(=O)OC1=CN(Cc2ccccc2)S(=O)(=O)c2ccccc21`, the Potency was inconclusive: 23.3 µM [falling, single point]. For `COCCCNC(=O)CSc1c2c(nc3ccc(Cl)cc13)CCCC2`, the Potency was inconclusive: 2.93 µM [falling, partial curve, poor fit]. In the case of `CCC1CCCCN1CCCNC(=O)c1cc2c(Cl)nc3ccccc3c2s1` (stereo unspecified), the Potency was active: 14.7 µM. For `CCOc1cc(CNc2ccc(O)cc2)ccc1OCc1ccc(Cl)cc1`, the Potency was inconclusive: 23.3 µM [falling, single point]. In the case of `CCOc1ccc(C2CC(=O)c3c([nH]c(C(=O)OCc4ccccc4)c3C)C2)cc1` (stereo unspecified), the Potency was active: 16.5 µM. With `CCOC(=O)c1c(NC(=O)c2ccc(S(=O)(=O)N(CCOC)CCOC)cc2)sc2c1CC(C)(C)NC2(C)C` the Potency was inconclusive: 16.5 µM [falling, single point]. For `CCOC(=O)c1ccc2c(c1)N(Cc1cccc([N+](=O)[O-])c1)C(=O)c1ccccc1S2`, the “activity, negative = inhibition” value was inactive: -3.45%. With `CCOc1ccc(-c2n[nH]c3c2C(c2cccs2)N(c2ccc(Br)cc2)C3=O)cc1` (stereo unspecified) the Potency was inconclusive: 10.4 µM [falling, partial curve, poor fit]. For `CC(=O)N1c2ccc(S(=O)(=O)NCC3CCC(C(=O)Nc4cccc(F)c4)CC3)cc2CC1C` (stereo unspecified), the “activity, negative = inhibition” value was inactive: -6.44%. In the case of `COc1ccc(-n2nc3c(N4CCCC(C(=O)NCc5ccccc5C)C4)nnc(C)c3c2C)cc1` (stereo unspecified), the Potency was active: 5.85 µM. In the case of `CSc1ccc(CCNS(=O)(=O)c2cc(-c3cc(C)no3)ccc2C)cc1`, the “activity, negative = inhibition” value was inactive: 1.3%. With `CC(C)c1cnc2c(c1SCC(=O)c1ccc(Cl)cc1)c(=O)n(C)c(=O)n2C` the “activity, negative = inhibition” value was inactive: -16.7%. In the case of `Cc1ccc2nc3sc(C(=O)Nc4ccc(F)cc4)cc3cc2c1`, the Potency was active: 2.33 µM. In the case of `Cc1cc(C)c2c(NC(=O)c3ccccc3Cl)c(C(=O)Nc3ccc(C)c(C)c3)sc2n1`, the Potency was active: 1.65 µM.
